From article PMC3695765 come the findings set out here.

By UniProt entry, the sequences of proteins in these tests, tags left out. Where a name states a change or a piece, a line headed by the entry shows the natural chain unless it says otherwise.
UniProt Q07157: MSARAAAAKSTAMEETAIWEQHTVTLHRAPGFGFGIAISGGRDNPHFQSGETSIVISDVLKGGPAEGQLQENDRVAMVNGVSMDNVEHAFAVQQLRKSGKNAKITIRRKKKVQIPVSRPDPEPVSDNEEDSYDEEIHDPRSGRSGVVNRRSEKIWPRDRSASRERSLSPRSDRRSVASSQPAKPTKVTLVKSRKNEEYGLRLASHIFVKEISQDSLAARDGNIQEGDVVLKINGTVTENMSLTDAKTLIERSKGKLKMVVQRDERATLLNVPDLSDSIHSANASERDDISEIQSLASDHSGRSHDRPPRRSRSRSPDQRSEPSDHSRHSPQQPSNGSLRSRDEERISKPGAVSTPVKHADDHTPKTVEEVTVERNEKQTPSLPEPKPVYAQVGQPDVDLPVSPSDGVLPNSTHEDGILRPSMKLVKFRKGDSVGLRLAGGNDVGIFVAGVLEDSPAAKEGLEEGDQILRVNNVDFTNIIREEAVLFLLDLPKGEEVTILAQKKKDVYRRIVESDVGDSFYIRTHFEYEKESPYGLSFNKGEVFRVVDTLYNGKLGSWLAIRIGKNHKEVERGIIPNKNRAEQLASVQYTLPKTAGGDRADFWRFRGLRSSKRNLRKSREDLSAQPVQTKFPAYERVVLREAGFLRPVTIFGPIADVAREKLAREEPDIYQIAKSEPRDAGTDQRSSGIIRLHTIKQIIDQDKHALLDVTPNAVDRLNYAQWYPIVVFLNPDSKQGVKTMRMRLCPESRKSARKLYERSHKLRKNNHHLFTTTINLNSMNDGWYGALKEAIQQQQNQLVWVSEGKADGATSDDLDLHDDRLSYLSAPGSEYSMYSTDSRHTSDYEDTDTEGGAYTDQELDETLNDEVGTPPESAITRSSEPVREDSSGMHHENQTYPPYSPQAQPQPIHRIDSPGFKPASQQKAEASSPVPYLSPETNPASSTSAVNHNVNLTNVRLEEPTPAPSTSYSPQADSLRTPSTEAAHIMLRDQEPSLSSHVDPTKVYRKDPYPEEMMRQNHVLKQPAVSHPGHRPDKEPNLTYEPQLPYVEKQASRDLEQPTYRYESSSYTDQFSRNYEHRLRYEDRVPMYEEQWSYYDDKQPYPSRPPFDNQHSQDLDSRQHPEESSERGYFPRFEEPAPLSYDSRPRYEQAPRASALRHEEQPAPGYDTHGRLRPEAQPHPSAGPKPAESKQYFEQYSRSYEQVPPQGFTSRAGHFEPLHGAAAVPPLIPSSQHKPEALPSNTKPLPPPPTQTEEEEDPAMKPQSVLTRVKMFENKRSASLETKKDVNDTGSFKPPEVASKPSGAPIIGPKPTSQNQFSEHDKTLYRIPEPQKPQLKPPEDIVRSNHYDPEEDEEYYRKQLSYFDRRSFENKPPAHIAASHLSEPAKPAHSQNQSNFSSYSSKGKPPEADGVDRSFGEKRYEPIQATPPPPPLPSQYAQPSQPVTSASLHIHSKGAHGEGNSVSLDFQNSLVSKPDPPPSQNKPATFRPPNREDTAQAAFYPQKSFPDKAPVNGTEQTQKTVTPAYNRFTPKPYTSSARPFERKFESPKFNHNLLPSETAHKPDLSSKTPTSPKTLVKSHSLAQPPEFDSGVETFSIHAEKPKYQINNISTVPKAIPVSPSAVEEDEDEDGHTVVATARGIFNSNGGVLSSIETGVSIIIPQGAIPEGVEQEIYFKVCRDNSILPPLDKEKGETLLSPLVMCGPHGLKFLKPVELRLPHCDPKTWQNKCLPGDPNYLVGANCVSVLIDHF
UniProt P68400: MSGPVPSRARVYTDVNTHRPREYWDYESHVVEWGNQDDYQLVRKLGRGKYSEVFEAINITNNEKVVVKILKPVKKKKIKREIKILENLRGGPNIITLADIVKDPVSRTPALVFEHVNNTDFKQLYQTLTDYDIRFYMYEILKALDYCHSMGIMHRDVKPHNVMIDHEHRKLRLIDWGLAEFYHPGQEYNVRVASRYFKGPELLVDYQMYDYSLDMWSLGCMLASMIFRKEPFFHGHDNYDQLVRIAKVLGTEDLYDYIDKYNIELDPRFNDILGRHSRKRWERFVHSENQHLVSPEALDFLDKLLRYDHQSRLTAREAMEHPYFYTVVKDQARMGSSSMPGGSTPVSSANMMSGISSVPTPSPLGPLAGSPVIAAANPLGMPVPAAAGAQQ

The target of experiment [1] is T1, full-length FLAG-occludin (human) (UniProt Q16625).
T1 sequence: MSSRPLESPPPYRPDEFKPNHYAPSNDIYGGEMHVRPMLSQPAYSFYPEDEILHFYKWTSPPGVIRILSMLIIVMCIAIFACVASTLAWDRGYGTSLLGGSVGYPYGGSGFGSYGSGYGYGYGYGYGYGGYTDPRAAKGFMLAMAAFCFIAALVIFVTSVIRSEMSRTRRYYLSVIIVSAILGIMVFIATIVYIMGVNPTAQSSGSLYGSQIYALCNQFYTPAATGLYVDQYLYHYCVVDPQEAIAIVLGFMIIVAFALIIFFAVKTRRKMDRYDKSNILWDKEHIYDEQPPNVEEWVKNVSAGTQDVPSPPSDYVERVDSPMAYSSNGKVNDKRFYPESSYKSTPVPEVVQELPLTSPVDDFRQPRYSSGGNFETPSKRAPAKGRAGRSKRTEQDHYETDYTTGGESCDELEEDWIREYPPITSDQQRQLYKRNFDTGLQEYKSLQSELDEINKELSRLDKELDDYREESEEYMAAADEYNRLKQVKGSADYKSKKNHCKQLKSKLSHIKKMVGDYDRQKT
In words: co-IP; HEK-293 cells transiently transfected with FLAG-occludin, HA-CK2α and myc-CK2β; IP with anti-FLAG M2, blot with anti-HA; lysis buffer 50 mM HEPES, 150 mM NaCl, 300 mM sucrose, 0.05 mM ZnCl2, 0.2% Triton X-100, pH 6.8.

The target of experiment [2] is C-terminally CFP tagged human ZO-1 (human) (UniProt Q07157). In words: FRET or BRET; acceptor photobleaching FRET at cell-cell contacts of living co-transfected HEK-293 cells; CFP and YFP fusions; cis-interaction along the cell membrane. On the technique in general: Bioluminescence resonance energy transfer reports proximity on the nanometre scale.
The target in experiment [3] is T2, human occludin wild type, N-terminal fusion with YFP or CFP (human) (UniProt Q16625).
T2 sequence: T1 sequence
The experiment is described as above.

Experiment [4] addresses T3, ZO-2 C-terminally fused with CFP (not stated (plasmids of hZO-2 and cZO-2 are named elsewhere in the paper)) (UniProt Q9UDY2).
T3 sequence: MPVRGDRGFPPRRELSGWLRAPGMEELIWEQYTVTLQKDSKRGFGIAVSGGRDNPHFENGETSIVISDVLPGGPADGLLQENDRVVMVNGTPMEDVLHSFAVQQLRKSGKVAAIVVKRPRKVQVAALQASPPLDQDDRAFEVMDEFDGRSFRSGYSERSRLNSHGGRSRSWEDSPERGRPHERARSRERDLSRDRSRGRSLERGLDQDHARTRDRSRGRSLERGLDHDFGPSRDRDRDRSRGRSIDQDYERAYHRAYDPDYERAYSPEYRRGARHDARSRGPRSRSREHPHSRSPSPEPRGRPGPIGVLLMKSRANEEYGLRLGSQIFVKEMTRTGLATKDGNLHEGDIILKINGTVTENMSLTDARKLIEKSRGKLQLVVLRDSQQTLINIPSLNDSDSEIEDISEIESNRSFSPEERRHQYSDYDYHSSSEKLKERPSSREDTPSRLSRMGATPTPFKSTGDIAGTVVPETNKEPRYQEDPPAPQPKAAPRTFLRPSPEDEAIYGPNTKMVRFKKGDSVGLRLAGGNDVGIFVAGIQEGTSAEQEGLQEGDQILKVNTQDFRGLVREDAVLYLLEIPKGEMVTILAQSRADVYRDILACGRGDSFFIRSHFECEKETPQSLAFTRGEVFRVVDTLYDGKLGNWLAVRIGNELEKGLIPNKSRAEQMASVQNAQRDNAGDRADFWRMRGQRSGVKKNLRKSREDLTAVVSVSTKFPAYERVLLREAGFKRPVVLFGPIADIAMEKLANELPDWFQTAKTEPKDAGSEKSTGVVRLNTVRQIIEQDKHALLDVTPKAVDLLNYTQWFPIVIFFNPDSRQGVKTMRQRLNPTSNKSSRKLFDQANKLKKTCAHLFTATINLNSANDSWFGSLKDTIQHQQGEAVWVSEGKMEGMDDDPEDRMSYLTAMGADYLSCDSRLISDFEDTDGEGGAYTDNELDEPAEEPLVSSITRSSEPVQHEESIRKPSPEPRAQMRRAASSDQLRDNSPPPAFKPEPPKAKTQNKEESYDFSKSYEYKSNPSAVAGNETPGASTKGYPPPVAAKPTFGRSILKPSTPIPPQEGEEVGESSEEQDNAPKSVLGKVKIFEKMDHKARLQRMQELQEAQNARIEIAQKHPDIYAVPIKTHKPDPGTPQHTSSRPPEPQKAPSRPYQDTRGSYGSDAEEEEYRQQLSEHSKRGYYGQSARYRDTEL
Described as above.

For experiment [5], the target named is T4, endogenous ZO-2 of MDCK C11 cells (canine (endogenous in MDCK C11)) (UniProt Q95168).
T4 sequence: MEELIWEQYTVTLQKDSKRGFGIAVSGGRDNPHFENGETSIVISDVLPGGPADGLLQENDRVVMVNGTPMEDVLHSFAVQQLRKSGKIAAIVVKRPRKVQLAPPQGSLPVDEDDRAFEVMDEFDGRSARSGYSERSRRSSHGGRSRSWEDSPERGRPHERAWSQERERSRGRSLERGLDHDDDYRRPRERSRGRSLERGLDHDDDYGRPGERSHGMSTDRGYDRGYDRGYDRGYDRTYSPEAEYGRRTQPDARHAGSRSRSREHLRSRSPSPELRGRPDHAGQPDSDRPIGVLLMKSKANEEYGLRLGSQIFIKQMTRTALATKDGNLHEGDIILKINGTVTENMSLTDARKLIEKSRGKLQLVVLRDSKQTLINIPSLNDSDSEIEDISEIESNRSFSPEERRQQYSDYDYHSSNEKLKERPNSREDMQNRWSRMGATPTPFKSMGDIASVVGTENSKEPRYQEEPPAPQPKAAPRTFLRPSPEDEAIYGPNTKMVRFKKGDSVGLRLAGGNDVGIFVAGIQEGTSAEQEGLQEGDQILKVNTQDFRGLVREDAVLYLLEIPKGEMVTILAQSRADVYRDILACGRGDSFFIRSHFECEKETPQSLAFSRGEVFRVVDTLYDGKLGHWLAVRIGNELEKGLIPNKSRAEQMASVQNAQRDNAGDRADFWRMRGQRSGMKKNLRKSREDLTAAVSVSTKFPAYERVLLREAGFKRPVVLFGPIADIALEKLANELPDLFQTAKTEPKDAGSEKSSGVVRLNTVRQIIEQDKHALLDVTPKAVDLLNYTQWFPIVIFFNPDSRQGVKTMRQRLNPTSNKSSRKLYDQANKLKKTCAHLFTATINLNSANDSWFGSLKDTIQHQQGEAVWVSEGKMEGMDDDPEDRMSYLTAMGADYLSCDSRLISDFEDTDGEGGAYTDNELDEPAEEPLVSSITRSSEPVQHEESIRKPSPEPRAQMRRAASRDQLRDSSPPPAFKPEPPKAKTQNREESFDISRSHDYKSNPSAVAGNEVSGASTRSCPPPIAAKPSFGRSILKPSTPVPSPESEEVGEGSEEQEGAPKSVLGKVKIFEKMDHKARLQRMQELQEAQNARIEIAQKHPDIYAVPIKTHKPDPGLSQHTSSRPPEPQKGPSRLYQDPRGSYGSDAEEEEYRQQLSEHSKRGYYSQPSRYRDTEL
In words: co-IP; MDCK C11 cells transiently transfected with occludin-FLAG3 constructs; endogenous ZO-2 precipitated with anti-ZO-2 and Protein A-Sepharose; blot with anti-FLAG M2; PBS, 0.2% Triton X-100, 1 mM NaVO3, 10 mM NaF.

Positions count from the first letter of the chain named. Numbers in names are those of the source. These are yes or no findings as the source states them, for the method shown. In cells and extracts the contact can be indirect. Some results given as binding are weak or reduced against the parent protein; the word gives no strength. Where a sequence is shown, tags or fusion partners need not be part of it.

On to “CK2 (HA-CK2α and myc-CK2β, co-transfected) (from UniProt P68400 1-391; P67870 1-215) (complex)”, for which the binding result in experiment [1] is “binds”.

B1: YFP-occludin S408E (protein, UniProt Q16625 1-522)
chain: T1 sequence with S408E
For the molecule B1, the binding entry in experiment [2] and in experiment [3] was “binds” throughout.

B2: YFP-occludin T400E/T404E/S408E (protein, UniProt Q16625 1-522)
chain: T1 sequence with T400E, T404E, S408E
In the case of B2, the binding entry in experiment [2] and in experiment [3] was “binds” each time.

B3: human occludin wild type, N-terminal fusion with YFP or CFP (protein, UniProt Q16625 1-522)
chain: T1 sequence
As to B3, the binding result in experiment [2] and in experiment [4] was “binds” throughout.

B4: wildtype Occ-FLAG3 (p3xFLAG-CMV14-occludin) (protein, UniProt Q16625 1-522)
chain: T1 sequence
As to B4, the binding result in experiment [5] is given as “binds”.

B5: Occ-FLAG3 T400A/T404A/S408A (protein, UniProt Q16625 1-522)
chain: T1 sequence with T400A, T404A, S408A
Consider B5, for which, in experiment [5], the binding entry is “binds”.

B6: YFP-occludin T400A/T404A/S408A (protein, UniProt Q16625 1-522)
chain: T1 sequence with T400A, T404A, S408A
For B6, the binding entry in experiment [2], in experiment [4] and in experiment [3] was “binds” throughout.
